{"source": "PubChem BioAssay AID652243, Drosophila RNAi Screening Center | 2013", "purpose": "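Knock-downs that decrease or increase androgen receptor reporter signal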 (primary screen)", "system": "Drosophila S2R+ cells", "knock-down reagent": "long dsRNA against Drosophila genes", "timing": "72 h (48 h, then 24 h hormone)", "challenge": "synthetic androgen R1881 at 10 nM for 24 h", "measurement": "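Firefly light from an androgen-responsive reporter and Renilla control light per well, raw and unnormalised, for each of two replicates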", "direction": "firefly reporter light: higher = more light from androgen-responsive reporter; Renilla control light: higher = more constitutive control signal (cell number, transfection)", "active means": "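Across duplicate plates, a knock-down whose log firefly/Renilla ratio shifted a set fold down or up from the GFP/LacZ control mean was a hit; the downward cut appears as both 1.5 and 3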", "meaning of the calls": "active = hit: reporter lowered or raised; inactive = no hit", "note": "In all, the deposit lists about 24,000 reagents; this is a random part of those with a known target gene and a result. In the full data, 246 (1%) got an active call. 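Plates not normalised; calls are printed but the firefly/Renilla ratio behind them is not deposited; fold cut for lowering reported inconsistently.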 The raw values are shown without normalisation. The numbers tell different reagents against one gene apart. A plus sign joins genes that one reagent is predicted to hit. The record does not give: the amount of reagent."}
{"Gene":"Sod2","reagent no.":1,"firefly reporter light, replicate 1":1.05e6,"firefly reporter light, replicate 2":9.43e5,"Renilla control light, replicate 1":1.83e6,"Renilla control light, replicate 2":1.82e6,"call":"inactive"}
{"Gene":"Sod2","reagent no.":2,"firefly reporter light, replicate 1":3.34e5,"firefly reporter light, replicate 2":2.60e5,"Renilla control light, replicate 1":8.71e5,"Renilla control light, replicate 2":7.03e5,"call":"inactive"}
{"Gene":"CG14644","reagent no.":1,"firefly reporter light, replicate 1":41514,"firefly reporter light, replicate 2":70302,"Renilla control light, replicate 1":1.20e6,"Renilla control light, replicate 2":9.91e5,"call":"inactive"}
{"Gene":"RNaseP:RNA","reagent no.":1,"firefly reporter light, replicate 1":6.73e5,"firefly reporter light, replicate 2":9.27e5,"Renilla control light, replicate 1":1.92e6,"Renilla control light, replicate 2":2.47e6,"call":"inactive"}
{"Gene":"Col4a1","reagent no.":1,"firefly reporter light, replicate 1":1.04e6,"firefly reporter light, replicate 2":1.10e6,"Renilla control light, replicate 1":2.18e6,"Renilla control light, replicate 2":2.35e6,"call":"inactive"}
{"Gene":"Ssu72","reagent no.":1,"firefly reporter light, replicate 1":1.36e5,"firefly reporter light, replicate 2":1.16e5,"Renilla control light, replicate 1":2.69e5,"Renilla control light, replicate 2":2.08e5,"call":"inactive"}
{"Gene":"Ssu72","reagent no.":2,"firefly reporter light, replicate 1":5.87e5,"firefly reporter light, replicate 2":4.14e5,"Renilla control light, replicate 1":2.48e6,"Renilla control light, replicate 2":1.56e6,"call":"inactive"}
{"Gene":"CG7386","reagent no.":1,"firefly reporter light, replicate 1":2.41e5,"firefly reporter light, replicate 2":2.15e5,"Renilla control light, replicate 1":2.76e6,"Renilla control light, replicate 2":2.71e6,"call":"inactive"}
{"Gene":"CG7386","reagent no.":2,"firefly reporter light, replicate 1":4.95e5,"firefly reporter light, replicate 2":5.06e5,"Renilla control light, replicate 1":8.65e5,"Renilla control light, replicate 2":8.65e5,"call":"inactive"}
{"Gene":"CG13144","reagent no.":1,"firefly reporter light, replicate 1":1.32e5,"firefly reporter light, replicate 2":1.80e5,"Renilla control light, replicate 1":1.36e6,"Renilla control light, replicate 2":1.11e6,"call":"inactive"}
{"Gene":"E(spl)m2-BFM","reagent no.":1,"firefly reporter light, replicate 1":5.85e5,"firefly reporter light, replicate 2":7.89e5,"Renilla control light, replicate 1":1.19e6,"Renilla control light, replicate 2":2.01e6,"call":"inactive"}
{"Gene":"CG6800 + Polr1H","reagent no.":1,"call":"inactive"}
{"Gene":"Lcp1","reagent no.":1,"firefly reporter light, replicate 1":3.62e5,"firefly reporter light, replicate 2":4.43e5,"Renilla control light, replicate 1":1.95e6,"Renilla control light, replicate 2":1.88e6,"call":"inactive"}
{"Gene":"mIF3","reagent no.":1,"firefly reporter light, replicate 1":2.70e5,"firefly reporter light, replicate 2":1.72e5,"Renilla control light, replicate 1":1.55e6,"Renilla control light, replicate 2":1.21e6,"call":"inactive"}
